Measured values reported in patent US9635857B2, “Tetrazolinone compound and use thereof” (SUMITOMO CHEMICAL COMPANY, LIMITED, priority 2013, dated 2017).
Some results were stated once for a whole list of compounds, not compound by compound. At least one structure is not confirmed: it was looked up by name or label, or the drawing left a doubt.

How the values were obtained:
Format in all cases: in vivo
[1] = tested on: barley scald fungus (Rhynchosporium secalis); assay: Test Example 8: barley scald control, foliar spray on barley; conditions: 200 ppm water dilution containing a surfactant sprayed on barley (NISHINOHOSHI); inoculated after 2 days; assessed after 3 + 7 days
[2] = tested on: wheat leaf blotch fungus (Septoria tritici); assay: Test Example 5: wheat leaf blotch control, foliar spray on wheat; conditions: 500 ppm sprayed on wheat (APOGEE); inoculated after 4 days; assessed after 3 days + 14 to 18 days
[3] = tested on: kidney bean stem rot fungus (Sclerotinia sclerotiorum); assay: Test Example 4: kidney bean stem rot control, foliar spray on kidney bean; conditions: 500 ppm sprayed on kidney bean (NAGAUZURA SAIYTOU); assessed four days after inoculation
[4] = tested on: cucumber anthracnose fungus (Colletotrichum lagenarium); assay: Test Example 10: cucumber anthracnose control, foliar spray on cucumber; conditions: 200 ppm sprayed on cucumber (SAGAMI HANJIRO); inoculated after 1 day; assessed after 1 + 6 days
[5] = tested on: cucumber powdery mildew fungus (Sphaerotheca fuliginea); assay: Test Example 6: cucumber powdery mildew control, foliar spray on cucumber; conditions: 500 ppm sprayed on cucumber (SAGAMI HANJIRO); assessed 8 days after inoculation
[6] = tested on: cucumber target leaf spot fungus (Corynespora cassiicola); assay: Test Example 9: cucumber target leaf spot control, foliar spray on cucumber; conditions: 200 ppm sprayed on cucumber (SAGAMI HANJIRO); inoculated after 1 day; assessed after 7 days

Measured: area of lesion on the treated plant relative to that on an untreated plant

CCON=C(C)c1cccc(OCc2c(C)cccc2-n2nnn(C)c2=O)c1 [compound 12]
≤ 30%: [1] | [2] | [3] | [4] | [5] | [6]

CC(=NOCCc1ccccc1)c1cccc(OCc2c(C)cccc2-n2nnn(C)c2=O)c1 [compound 16]
≤ 30%: [1] | [2] | [3] | [4] | [5] | [6]
